Measurements: patent publication US20030221588A1, “Monoazo dyes and their preparation and use” (ILFORD IMAGING SWITZERLAND GmbH., priority 2002, published 2003)

Experiment: Color coordinates (L*a*b* values) of ink jet printed samples of inks comprising the dyes
Conditions: Canon BJC 8500, illuminant D65; for L* (L*a*b* values, Recording Sheet 1) / a* (L*a*b* values, Recording Sheet 1) / b* (L*a*b* values, Recording Sheet 1): ink printed on ILFORD Photo Paper IJP1GP7 (Recording Sheet 1); for L* (L*a*b* values, Recording Sheet 2) / a* (L*a*b* values, Recording Sheet 2) / b* (L*a*b* values, Recording Sheet 2): ink printed on Xerox 4024 DP (Recording Sheet 2)

Row | Structure (SMILES) | L* (L*a*b* values, Recording Sheet 1) | a* (L*a*b* values, Recording Sheet 1) | b* (L*a*b* values, Recording Sheet 1) | L* (L*a*b* values, Recording Sheet 2) | a* (L*a*b* values, Recording Sheet 2) | b* (L*a*b* values, Recording Sheet 2)
1 | O=C(Nc1cc(S(=O)(=O)[O-])cc2cc(S(=O)(=O)[O-])c(N=Nc3ccc4c(S(=O)(=O)[O-])cccc4c3S(=O)(=O)[O-])c(O)c12)c1cccs1.[Na+].[Na+].[Na+].[Na+] [Compound No. 10] | 46.6 | 81.5 | −11.9 | 52.9 | 65.0 | −8.8
2 | O=C(Nc1cc(S(=O)(=O)[O-])cc2cc(S(=O)(=O)[O-])c(N=Nc3ccc4c(S(=O)(=O)[O-])cccc4c3S(=O)(=O)[O-])c(O)c12)c1ccccc1.[Na+].[Na+].[Na+].[Na+] [III] | 46.9 | 84.0 | −8.2 | 53.2 | 67.3 | −5.8
3 | CCOc1nc(Nc2ccc(S(=O)(=O)[O-])c(N=Nc3c(S(=O)(=O)[O-])cc4cc(S(=O)(=O)[O-])cc(NC(=O)c5ccccc5)c4c3O)c2)nc(SCCCS(=O)(=O)[O-])n1.[Na+].[Na+].[Na+].[Na+] [II] | 45.6 | 83.1 | −3.5 | 52.9 | 66.1 | −2.7
4 | Cc1ccc(N=Nc2c(S(=O)(=O)[O-])cc3cc(S(=O)(=O)[O-])cc(NC(=O)c4ccccc4)c3c2O)c(S(=O)(=O)[O-])c1.[Na+].[Na+].[Na+] [I] | 47.0 | 85.1 | −10.4 | 53.3 | 68.7 | −7.4
5 | Cc1ccc(N=Nc2c(S(=O)(=O)[O-])cc3cc(S(=O)(=O)[O-])cc(NC(=O)c4cccs4)c3c2O)c(S(=O)(=O)[O-])c1.[Na+].[Na+].[Na+] [compound 50] | 47.1 | 84.0 | −14.7 | 53.3 | 67.5 | −10.8
